Results are given in words; binding and its absence hold for the method and conditions named. Some results given as binding are weak or reduced against the parent protein; the word gives no strength.
How the values were obtained:
[1] = target: human CD123 (alpha chain of the interleukin-3 receptor) (human) (UniProt P26951); assay: calibrated flow cytometry on antigen-positive cells, variants compared
protein A = protein A (UniProt P38507); assay: batch capture on Protein A Sepharose 4 Fast Flow beads, elution at pH 3.0

Amino acid sequences for entries named in this document (tags omitted). A change or cut given only in a name is not applied to a line headed by its entry.
UniProt P26951: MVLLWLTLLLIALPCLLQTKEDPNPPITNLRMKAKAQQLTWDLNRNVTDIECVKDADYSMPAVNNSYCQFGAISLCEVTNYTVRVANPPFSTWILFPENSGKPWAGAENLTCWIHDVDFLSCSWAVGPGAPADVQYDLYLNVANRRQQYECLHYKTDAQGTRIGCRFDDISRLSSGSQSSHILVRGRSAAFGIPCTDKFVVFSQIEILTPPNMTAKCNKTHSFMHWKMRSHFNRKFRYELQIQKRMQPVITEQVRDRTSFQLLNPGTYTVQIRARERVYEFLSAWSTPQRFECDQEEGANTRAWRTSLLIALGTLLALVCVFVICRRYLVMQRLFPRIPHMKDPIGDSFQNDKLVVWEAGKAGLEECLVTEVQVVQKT

| Binder | binding [1] | binding (protein A) |
| --- | --- | --- |
| candidate triplebody hu[33-ds16-ds123RK] before polishing of the sequence (protein, not shown: small tags and cut ends) EVQLVESGGGLIQPGGSLRLSCAASGFPLTSYGVSWVRQPPGKGLEWLGVIWGDGSTNYHSALISRFTISRDNSKNTLYLQMNSLRAEDTAVYYCARDTYYPYYAMDYWGQGTTVTVSSGGGGSGGGGSGGGGSDIQMTQSPSSLSASVGDRVTITCKASQDVSTAVAWYQQKPGKAPKLLIYSASYRYTGVPSRFSGSGSGTDFTLTISSLQPEDFATYYCQQHYSTPLTFGQGTKLEIKRGGGGSGGGGSGGGGSGGGGSDIVLTQSPSSLSASVGDRVTITCKASQSVDFDGDSFMNWYQQKPGKAPKLLIYTTSNLESGVPSRFSASGSGTDFTLTISSLQPEDFATYYCQQSNEDPYTFGCGTKVEIKRGGGGSGGGGSGGGGSGGGGSEVQLVESGGGDVQPGGSLRLSCAFSGFSLRTSGMGVGWIRQAPGKCLEWVAHIWWDDDKRYNPSVKGRFTISKDTSSNTVYLQMNSLRAEDTAVYYCAQINPAWFAYWGQGTLVTVSSGGGGSGGGGSGGGGSGGGGSEVQLVESGGGLVQPGGSLRLSCAASGFTFTDYYMSWVRQAPGKCLEWLALIRSKADGYTTEYSASVKGRFTISRDDSKNSLYLQMNSLKTEDTAVYYCARDAAYYSYYSPEGAMDYWGQGTSVTVSSGGGGSGGGGSGGGGSDIQMTQSPSSLSASVGDRVTITCKASQNVDSAVAWYQQKPGKAPKALIYSASYRYSGVPSRFSGSGSGTDFTLTISSLQPEDFATYYCQQYYSTPWTFGCGTKVEIKR | binds | – |
| single chain triplebody SPM-2, hu(33-ds16-ds123RK) (protein) EVQLVESGGGLIQPGGSLRLSCAASGFPLTSYGVSWVRQPPGKGLEWLGVIWGDGSTNYHSALISRFTISRDNSKNTLYLQMNSLRAEDTAVYYCARDTYYPYYAMDYWGQGTTVTVSSGGGGSGGGGSGGGGSDIQMTQSPSSLSASVGDRVTITCKASQDVSTAVAWYQQKPGKAPKLLIYSASYRYTGVPSRFSGSGSGTDFTLTISSLQPEDFATYYCQQHYSTPLTFGQGTKLEIKRGGGGSGGGGSGGGGSGGGGSDIVLTQSPSSLSASVGDRVTITCKASQSVDFDGDSFMNWYQQKPGKAPKLLIYTTSNLESGVPSRFSASGSGTDFTLTISSLQPEDFATYYCQQSNEDPYTFGCGTKVEIKRGGGGSGGGGSGGGGSGGGGSEVQLVESGGGDVQPGGSLRLSCAFSGFSLRTSGMGVGWIRQAPGKCLEWVAHIWWDDDKRYNPSVKGRFTISKDTSSNTVYLQMNSLRAEDTAVYYCAQINPAWFAYWGQGTLVTVSSGGGGSGGGGSGGGGSGGGGSEVQLVESGGGLVQPGGSLRLSCAASGFTFTDYYMSWVRQAPGKCLEWLALIRSKADGYTTEYSASVKGRFTISRDDSKNSLYLQMNSLKTEDTAVYYCARDAAYYSYYSPEGAMDYWGQGTSVTVSSGGGGSGGGGSGGGGSDIQMTQSPSSLSASVGDRVTITCKASQNVDSAVAWYQQKPGKAPKALIYSASYRYSGVPSRFSGSGSGTDFTLTISSLQPEDFATYYCQQYYSTPWTFGCGTKVEIKRGGGGSHHHHHH | – | binds |

From patent US20190359710A1
